Structures can show the parent of a compound that is named as a salt. The list shows a part of the results. Hit calls seldom repeat between salt and free forms of one compound.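 In K562 cells expressing nanoluciferase-fused kinases, luminescence was recorded at 4 h intervals between 2 and 18 h, normalized as percent of control with DMSO at 100% and a positive control at 0%. A significant (2 sigma) signal drop marks a time point as decreased. The authors' rule for a hit is not shown and takes in more than the number of time points.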
Each compound was assayed against MAP2K1 (UniProt Q02750) (assay: number of time points (of 5) at which kinase-Nluc abundance scored as decreased, DMSO-normalised (count); higher = more persistent destabilization). Details: K562; 2-18 h.

Compound | number of time points
Nc1nc2ccc(Cl)cc2c2nc(-c3ccco3)nn12 (10 µM) | 0
O=C(CSC1=NCCN1)NC1CCCCCC1 [ICCB-19 (hydrochloride)] (2.5 µM) | 0
O=Nc1c(-c2c(O)[nH]c3ccc(I)cc23)[nH]c2ccccc12 [5-Iodo-indirubin-3'-monoxime] (10 µM) | 0
Nc1nc(F)nc2c1ncn2[C@@H]1O[C@H](CO)[C@@H](O)[C@@H]1O [Fludarabine] (10 µM) | 0
Cc1cc(=O)oc2c(C=O)c(O)ccc12 (10 µM) | 0
C[C@@H]1CC[C@@H](Nc2nc(NC(C)(C)C)ncc2C(N)=O)C[C@H]1O (10 µM) | 0
NC(=O)c1nc(Nc2ccccc2)sc1NC(=O)C1CCCCC1 (10 µM) | 0

These compounds were tested against MAP2K2 (UniProt P36507) in the same assay as above. Details: K562; 2-18 h.

Compound | number of time points
FC(F)(c1ccc2ncccc2c1)c1nnc2ccc(-c3ccncc3)nn12 (10 µM) | 0
COc1ccc(-c2ccc3c(N4CCOCC4)nc(N4C[C@@H](C)O[C@@H](C)C4)nc3n2)cc1CO (2.5 µM) | 0
C=CC(=O)Nc1ccc(CN2C(=O)N(c3cc(OC)cc(OC)c3)Cc3cnc(Nc4ccc(N5CCN(C)CC5)cc4)nc32)cc1 (2.5 µM) | 0
O=C1NC(=O)/C(=C\c2cccc(C(F)(F)F)c2)S1 (2.5 µM) | 0
CN(C)C(=O)Cn1cc(-c2ccc(-c3cncc4ccccc34)cc2)cn1 (10 µM) | 0
COc1ccccc1-c1cc(Nc2cccc(CS(N)(=O)=O)c2)ncn1 (10 µM) | 0
C[C@@H]1COCCN1c1cc(C2([S@@](C)(=N)=O)CC2)nc(-c2ccnc3[nH]ccc23)n1 [(S)-Ceralasertib] (10 µM) | 0
c1cc(-c2c[nH]c3nccc(N4CCC[C@@]5(CCCCN5)C4)c23)ncn1 (10 µM) | 0
Cc1ccc2nc(NCCN)c3ncc(C)n3c2c1 (2.5 µM) | 0
C=CC(=O)Nc1cccc(Nc2nc(Nc3ccc(NC4CN(CCF)C4)cc3OC)ncc2C(F)(F)F)c1 (2.5 µM) | 0
COc1ncc(Cl)cc1S(=O)(=O)Nc1ccc(F)c(C#Cc2cnc(N)nc2)c1F (2.5 µM) | 0
C=CC(=O)Nc1cccc(Nc2nc(Nc3ccc(N4CCN(C(C)=O)CC4)cc3OC)ncc2C(F)(F)F)c1 [Rociletinib hydrobromide] (10 µM) | 0
C[C@@]1(c2ncncc2F)NC(=O)c2cc(-c3cn[nH]c3)ccc21 (10 µM) | 0
Cc1[nH]c(/C=C2\C(=O)Nc3ccc(F)cc32)c(C)c1C(=O)N[C@H]1CCN(C(=O)N(C)C)C1 [Vorolanib] (10 µM) | 0
NC(=O)c1ccc(-c2nc(-c3ccc4c(c3)OCCO4)c(-c3ccccn3)[nH]2)cc1 (10 µM) | 0
Cc1ccc2cc(-c3c(C)ccc(C(=O)c4c(-c5ccccc5)n(C)n(-c5ccccc5)c4=O)c3N)ccc2n1 (2.5 µM) | 0
OCCn1cc(-c2ccc3c(c2)CC/C3=N\O)c(-c2ccncc2)n1 (10 µM) | 0
NCCNS(=O)(=O)c1cccc2c(Cl)cccc12 [A-3 (hydrochloride)] (10 µM) | 0
COc1cccc(OC)c1C(=O)OCc1cc(O)ccc1O[C@@H]1O[C@H](CO)[C@@H](O)[C@H](O)[C@H]1O [Curculigoside] (10 µM) | 0
CC#CC(=O)N1CC[C@@H](n2c(=O)n(-c3ccc(Oc4ccccc4)cc3)c3c(N)ncnc32)C1 [Tirabrutinib] (10 µM) | 0
CC1=C(C(=O)O)N2C(=O)[C@@H](NC(=O)[C@H](N)C3=CCC=CC3)[C@H]2SC1 [Cephradine] (10 µM) | 0
CC(C)(C)c1nc(-c2cccc(NS(=O)(=O)c3c(F)cccc3F)c2F)c(-c2ccnc(N)n2)s1 [Dabrafenib] (2.5 µM) | 0
COc1cc2c(N3CCN(C(=O)Nc4ccc(OC(C)C)cc4)CC3)ncnc2cc1OCCCN1CCCCC1 [Tandutinib] (10 µM) | 0
Nc1cc(C(F)(F)F)c(-c2cc(N3CCOCC3)nc(N3CCOCC3)n2)cn1 [Buparlisib (Hydrochloride)] (2.5 µM) | 0
Cn1cc(-c2ccc3c(c2)CCN3C(=O)Cc2cccc(C(F)(F)F)c2)c2c(N)ncnc21 (2.5 µM) | 0
O=C1NC(=O)/C(=C/c2ccc3nccnc3c2)S1 (10 µM) | 0
Cn1ncc(Cl)c1-c1cc(C(=O)N[C@H](CN)Cc2ccc(F)c(F)c2)oc1Cl [Uprosertib] (10 µM) | 0

Fetched by structure from the entries so far, 2 records:
Compound | number of time points
O=C1NC(=O)/C(=C\c2cccc(C(F)(F)F)c2)S1 (2.5 µM) | 0
Cn1ncc(Cl)c1-c1cc(C(=O)N[C@H](CN)Cc2ccc(F)c(F)c2)oc1Cl [Uprosertib] (10 µM) | 0

Source: the supplement of paper PMC12823440, “Inhibitors supercharge kinase turnover through native proteolytic circuits” (Nature, 2025)
